Reference: article PMC3217976
The exact form of at least one protein or probe is not confirmed. Weaker means in comparison with the reference protein, sequence or condition of that experiment.

Sequences of proteins named here, by UniProt entry; tags and fusion partners are left off. Residues count along the entry.
UniProt P13393, 61-240: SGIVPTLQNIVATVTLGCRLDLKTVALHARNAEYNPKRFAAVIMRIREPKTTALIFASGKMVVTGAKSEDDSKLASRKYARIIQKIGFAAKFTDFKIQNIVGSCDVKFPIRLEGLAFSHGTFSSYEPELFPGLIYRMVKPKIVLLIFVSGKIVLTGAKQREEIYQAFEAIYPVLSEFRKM

Assays:
TBPcore + TFIIB = assay: EMSA; details: EMSA: 3 nM DNA, 300 nM TBPcore, 3 uM TFIIB, 4 mM Tris-HCl pH 8.0, 60 mM KCl, 5 mM MgCl2, 4% glycerol, 1 mM DTT, 100 ug/ml BSA, 0.1% Tween 20, 50 ug/ml heparin, recombinant protein, label: 5'-Cy5 on coding strand
TBPcore = TBPcore (UniProt P13393); assay: EMSA; details: EMSA: 3 nM DNA, 300 nM TBPcore, 3 uM TFIIB, 4 mM Tris-HCl pH 8.0, 60 mM KCl, 5 mM MgCl2, 4% glycerol, 1 mM DTT, 100 ug/ml BSA, 0.1% Tween 20, 50 ug/ml heparin, recombinant protein, label: 5'-Cy5 on coding strand

Row | Sequence | binding result (TBPcore + TFIIB; strongly decreased) | binding result (TBPcore; strongly decreased) | binding result (TBPcore + TFIIB; impaired) | binding result (TBPcore; impaired)
1 | ACAGTAGTATACTGTGGGCCGGCCAGATATGGAACGTTAT (double strand) [HIS4 (GC-8)] | binds more weakly | binds more weakly |  | 
2 | ATTTTCATTTTTGGCCGGCCGGCCATGTAACTAATTTAGT (double strand) [TMT1 (GC-12)] |  |  | binds more weakly | binds more weakly
